{
  "source": "PubChem BioAssay AID540276",
  "about": "(National Center for Advancing Translational Sciences (NCATS), 2011)",
  "note": "In all, about 300,000 compounds went through this assay and about 5,400 (1.8%) were called active. Inconclusive results, whose numbers are uncertain, are shown with a selection of clear calls. Calls follow the shape of the full dose curve; tested in HEK293 cells. Potencies of inconclusive entries are doubtful fits and often do not repeat. % is scaled to controls: 0 for no effect and ±100 for the full control effect; potency is read from the fitted curve at half-maximal effect.",
  "data": [
    {"experiment": "qHTS for inhibitors of binding or entry into cells for Marburg Virus", "settings": "Marburg virus pseudotyped entry inhibition, cell reporter; activity change, negative = inhibition: at 37.8 µM (top of the series) unless noted", "values": [
      {"molecule": "CCOC(=O)N1CCN(C(=O)C2CCN(S(=O)(=O)c3cc(C)ccc3OC)CC2)CC1", "activity change, negative = inhibition": "inactive: -0.543% [at 46.1 µM]"},
      {"molecule": "O=C(CC(O)(C(F)(F)F)C(F)(F)F)Nc1ccc(Cl)c(Cl)c1", "Potency": "active: 3.26 µM"},
      {"molecule": "COc1cc(NC(=S)NC(=O)c2cc(C)cc(C)c2)ccc1NC(=O)c1cccs1", "Potency": "inconclusive: 35.5 µM [inhibitor, single point]"},
      {"molecule": "COc1ccc2nc(C)cc(N/N=C/c3ccc(F)cc3)c2c1", "Potency": "inconclusive: 3.55 µM [activator, single point]"},
      {"molecule": "CCCOC(=O)c1c(-c2ccccc2)nc(CC)c(C(=O)SCC)c1CCC", "Potency": "inconclusive: 7.3 µM [inhibitor, partial curve, poor fit]"},
      {"molecule": "Nc1ccc(Oc2ccc3c(c2)C(=O)N(CC2CCCO2)C3=O)cc1", "note": "(stereo not given)", "Potency": "inconclusive: 7.08 µM [activator, partial curve, poor fit]"},
      {"molecule": "CN1CCN(c2nnc(-c3ccccc3)c(-c3ccccc3)n2)CC1", "Potency": "inconclusive: 15.8 µM [inhibitor, single point]"},
      {"molecule": "COc1ccc(/C=N/NC(=O)c2cccc(NC(=O)c3ccccc3Cl)c2)cc1OC", "Potency": "inconclusive: 7.94 µM [inhibitor, single point]"},
      {"molecule": "COc1ccc(C2C(C#N)=C(N)Oc3cc4c(cc32)OCO4)cc1", "note": "(stereo not given)", "Potency": "active: 5.8 µM"},
      {"molecule": "CSc1cccc(NC(=S)N2CCCN(Cc3ccccc3F)C2)c1", "Potency": "inconclusive: 7.08 µM [inhibitor, full curve]"},
      {"molecule": "CN1CCC(NCCC(c2ccc(F)cc2)c2ccc(Cl)cc2)CC1", "note": "(stereo not given)", "Potency": "inconclusive: 7.08 µM [inhibitor, partial curve, poor fit]"},
      {"molecule": "COc1cc(S(=O)(=O)NCC2(N3CCCCC3)CCCCC2)ccc1NC(C)=O", "Potency": "inconclusive: 35.5 µM [activator, partial curve, poor fit]"},
      {"molecule": "COC(=O)C(O)(c1ccc(NC(=S)NC(=O)c2ccc(Cl)cc2Cl)cc1)C(F)(F)F", "note": "(stereo not given)", "activity change, negative = inhibition": "inactive: 3.97%"},
      {"molecule": "CCN(CC(O)COc1ccc(OCC(O)CN(CC)C2CCCCC2)cc1)C1CCCCC1", "note": "(stereo not given)", "Potency": "inconclusive: 6.31 µM [inhibitor, full curve, poor fit]"},
      {"molecule": "CCOC(=O)c1c(C)[nH]c(C)c1S(=O)(=O)NCCN1CCN(c2ccccc2F)CC1", "activity change, negative = inhibition": "inactive: -13.9% [at 46.1 µM]"},
      {"molecule": "CC(=O)c1ccc(S(=O)(=O)N(C)CC(=O)Nc2cccc(S(=O)(=O)N3CCCC3)c2)cc1", "activity change, negative = inhibition": "inactive: 0.558%"},
      {"molecule": "COc1ccc(CCn2c(=N)c(C(=O)NCc3ccco3)cc3c(=O)n4ccccc4nc32)cc1", "Potency": "active: 20.6 µM"},
      {"molecule": "O=C1Nc2ccccc2C1Cc1ccc(Br)cc1", "note": "(stereo not given)", "activity change, negative = inhibition": "inactive: -2.32% [at 46.1 µM]"},
      {"molecule": "COc1ccc(N(CC(=O)NCCSCc2ccc(C)cc2)S(=O)(=O)c2ccccc2)cc1", "Potency": "inconclusive: 10 µM [inhibitor, single point]"},
      {"molecule": "CN(CC(=O)NCC1CCCCC1)CC(=O)Nc1ccccc1Br", "activity change, negative = inhibition": "inactive: -11.4%"},
      {"molecule": "COc1ccccc1OCCNCC(O)COc1cccc2[nH]c3ccccc3c12", "note": "(stereo not given)", "Potency": "active: 11.6 µM"},
      {"molecule": "COC(=O)c1ccc(COC(=O)c2ccc(C)c(S(=O)(=O)N3CCCCC3)c2)cc1", "activity change, negative = inhibition": "inactive: 12.3% [at 46.1 µM]"},
      {"molecule": "C=CCn1c(SCc2cc(=O)n3ccsc3n2)nc2cc(Cl)ccc2c1=O", "activity change, negative = inhibition": "inactive: -2.92% [at 46.1 µM]"},
      {"molecule": "COc1ccc(OCCSc2n[nH]c(N)n2)cc1", "activity change, negative = inhibition": "inactive: 0.461% [at 46.1 µM]"},
      {"molecule": "COc1ccc(OCC(=O)Nc2cc(-c3nc4ccccc4o3)ccc2Cl)cc1", "Potency": "inconclusive: 14.1 µM [activator, single point]"},
      {"molecule": "C=CCSc1nnc(-c2cc3c(-c4ccccc4)nn(C)c3s2)n1C", "Potency": "inconclusive: 35.5 µM [inhibitor, single point]"},
      {"molecule": "CCCc1cc(=O)oc2cc(C)c3c(C)coc3c12", "Potency": "inconclusive: 14.6 µM [inhibitor, partial curve, poor fit]"},
      {"molecule": "CCCCn1c(SCC2CCCO2)nc2cc(S(N)(=O)=O)ccc21", "note": "(stereo not given)", "activity change, negative = inhibition": "inconclusive: 0.0079% [activator]"},
      {"molecule": "CC1CC(C)CN(C(=O)C(Cc2ccccc2)n2cccc2)C1", "note": "(stereo not given)", "activity change, negative = inhibition": "inactive: -19.8%"},
      {"molecule": "CC1CCN(C(=O)c2cc(-c3ccc(Cl)c(Cl)c3)on2)CC1", "activity change, negative = inhibition": "inactive: -1.62%"},
      {"molecule": "COC(=O)NC(CC(C)=O)c1ccccc1", "note": "(stereo not given)", "activity change, negative = inhibition": "inactive: 10.8%"},
      {"molecule": "CCSC1=N/C(=C\\c2ccccc2)C(=O)N1c1ccc(OC)cc1", "activity change, negative = inhibition": "inactive: -2.09%"},
      {"molecule": "CSc1ccc(CN2C(=O)NC3(CCCCCC3)C2=O)cc1", "Potency": "inconclusive: 25.1 µM [inhibitor, partial curve, poor fit]"},
      {"molecule": "COc1ccccc1CCC(=O)OCC(=O)Nc1c(C)nn(-c2ccccc2)c1C", "activity change, negative = inhibition": "inconclusive: 19.2% [activator]"},
      {"molecule": "COC(=O)c1ccccc1NC(=O)Cn1c(=O)n(-c2ccc(C)cc2)c(=O)c2ccccc21", "Potency": "inconclusive: 2.24 µM [inhibitor, partial curve, poor fit]"},
      {"molecule": "Cc1ccc(-c2csc(NC(=O)CSc3nc4ccccc4o3)n2)cc1", "Potency": "inconclusive: 0.316 µM [activator, partial curve, poor fit]"},
      {"molecule": "O=C(/C=C/c1ccc(F)cc1)NCCC1=CCCCC1", "Potency": "inconclusive: 5.8 µM [activator, single point]"},
      {"molecule": "COCCOc1ccc(C(F)(F)F)cc1NC(=O)c1ccc(C(F)(F)F)cc1", "Potency": "inconclusive: 3.98 µM [activator, full curve, poor fit]"},
      {"molecule": "CCOC(=O)c1ccccc1NS(=O)(=O)c1ccc(OCC)cc1", "Potency": "inconclusive: 8.2 µM [inhibitor, partial curve, poor fit]"},
      {"molecule": "COc1ccc(S(=O)(=O)N2CCOC2CNC(=O)C(=O)NCCN2CCOCC2)cc1", "note": "(stereo not given)", "activity change, negative = inhibition": "inactive: 12.1%"},
      {"molecule": "Cc1nc2ncnn2c(C)c1CCC(=O)NC(C)c1ccc2c(c1)OCCO2", "note": "(stereo not given)", "activity change, negative = inhibition": "inactive: -2.64%"},
      {"molecule": "O=C(CSc1nnc(CNC(=O)c2cccs2)o1)NC1CCCCC1", "Potency": "inconclusive: 35.5 µM [activator, partial curve, poor fit]"},
      {"molecule": "COc1ccc(C(=O)COC(=O)CNS(=O)(=O)c2ccc(C)cc2)cc1", "Potency": "inconclusive: 1 µM [inhibitor, partial curve, poor fit]"},
      {"molecule": "Cc1cccc(NC(=O)c2oc3ccccc3c2NC(=O)Cc2coc3cc(C)cc(C)c23)c1", "activity change, negative = inhibition": "inactive: -17.8% [at 46.1 µM]"},
      {"molecule": "Cc1cc(/C=C(\\C#N)C(=O)Nc2ccc(F)cc2)c(C)n1-c1ccc(N2CCOCC2)c([N+](=O)[O-])c1", "Potency": "inconclusive: 5.8 µM [inhibitor, full curve]"}
    ]}
  ]
}
